Measured values published in PubChem BioAssay AID540276 (National Center for Advancing Translational Sciences (NCATS), 2011).
The whole screen tested about 300,000 compounds, of which about 5,400 (1.8%) were called active. The shares of active, inactive and inconclusive entries below differ from those in the screen. The call rests on the fitted dose curve; tested in HEK293 cells. Potencies beside an inconclusive call are fits to weak or partial responses and may not hold up.

test: qHTS for inhibitors of binding or entry into cells for Marburg Virus; conditions: Marburg virus pseudotyped entry inhibition, cell reporter; activity change, negative = inhibition: at 37.8 µM (top of the series) unless noted
On the % scale 0 is the no-effect control and ±100 the full control effect; potency means the concentration at half of the fitted maximal effect.

SMILES | activity change, negative = inhibition | Potency
CCc1nn(CC(=O)NCc2ccc(OC)c(OC)c2)c(=O)c2cc3sc(C)cc3n12 | inactive: 6.33% [at 46.1 µM] | –
Cc1cc(C)n(CCC(=O)N/N=C/c2ccccc2O)n1 | inactive: -17.8% | –
COc1ccc(NC(=O)c2cccnc2Cl)c(S(=O)(=O)N2CCOCC2)c1 | inactive: 25.6% | –
Cc1nc(/N=C\N(C)C)sc1C(=O)Nc1ccccc1 | – | inconclusive: 0.326 µM [activator, partial curve, poor fit]
C=CCNC(=O)/C(C#N)=C/c1ccccc1[N+](=O)[O-] | – | inconclusive: 10 µM [inhibitor, single point]
O=C(NCCc1ccccc1)c1ccc(S(=O)(=O)N2CCCC2)cc1 | – | inconclusive: 0.708 µM [activator, partial curve, poor fit]
CN(C)S(=O)(=O)c1cccc(N=C2NN=C(c3ccccc3)CS2)c1 | – | inconclusive: 20.6 µM [inhibitor, partial curve, poor fit]
CC(=O)NC12CC3CC(C1)CC(C(=O)OCC(=O)Nc1ncc(Cl)c(C)c1Cl)(C3)C2 | inactive: 17.5% | –
CCNc1cc(Cl)nc(SC)n1 | – | inconclusive: 7.94 µM [activator, partial curve]
CCOC(=O)c1ccc(N=C2SC(C(=O)NC)CC(=O)N2Cc2ccc(F)cc2)cc1 (stereo unspecified) | inactive: 4.67% | –
O=C(O)CSc1nnnn1-c1ccccc1 | – | inconclusive: 0.058 µM [inhibitor, partial curve, poor fit]
CCOC(=O)N/N=C(C)/C=C/c1ccco1 | – | inconclusive: 23.1 µM [activator, single point]
C=CCn1c(COc2ccccc2)nc2ccccc21 | – | inconclusive: 31.6 µM [activator, single point]
O=C(COC(=O)c1ccccc1NS(=O)(=O)c1cccs1)NCC12CC3CC(CC(C3)C1)C2 | – | inconclusive: 35.5 µM [inhibitor, single point]
COc1ccc(S(=O)(=O)N2CCC3(CC2)CC(=O)c2ccccc2O3)cc1OC | – | inconclusive: 1.41 µM [inhibitor, single point]
N=c1sccn1CC(=O)NCCc1ccc(Cl)cc1Cl | inactive: -15.9% | –
O=C1C2=C(CCCC2)C(=O)N1c1cccc(OCCBr)c1 | inactive: 5.54% | –
COc1ccc(N(CC(=O)Nc2ccccc2F)S(=O)(=O)c2ccc(C)c([N+](=O)[O-])c2)cc1 | – | inconclusive: 22.4 µM [inhibitor, partial curve, poor fit]
COc1ccc(C2CC3(CC(C)(C)NC(=S)N3)Oc3cc(O)cc(C)c32)cc1 (stereo unspecified) | – | inconclusive: 0.411 µM [inhibitor, full curve, poor fit]
CC(C)(C)c1ccc(C2=NC(C)(C)N(CC(=O)Nc3ccc(F)c(F)c3)C2=O)cc1 | inactive: 10.3% [at 46.1 µM] | –
O=C(C1CCN(S(=O)(=O)N2CCOCC2)CC1)N1CCc2ccccc21 | inactive: -0.488% | –
O=C1Nc2ccccc2Nc2ccccc21 | inactive: -6.81% | –
Cc1cc(C)n(CC(O)COc2ccccc2[N+](=O)[O-])n1 (stereo unspecified) | – | inconclusive: 2.82 µM [activator, single point]

Rewritten in CSV form: part of the list above.
SMILES,"activity change, negative = inhibition",Potency
Cc1cc(C)n(CCC(=O)N/N=C/c2ccccc2O)n1,inactive: -17.8%,–
O=C(O)CSc1nnnn1-c1ccccc1,–,"inconclusive: 0.058 µM [inhibitor, partial curve, poor fit]"
COc1ccc(N(CC(=O)Nc2ccccc2F)S(=O)(=O)c2ccc(C)c([N+](=O)[O-])c2)cc1,–,"inconclusive: 22.4 µM [inhibitor, partial curve, poor fit]"
CC(C)(C)c1ccc(C2=NC(C)(C)N(CC(=O)Nc3ccc(F)c(F)c3)C2=O)cc1,inactive: 10.3% [at 46.1 µM],–

(more compounds)

SMILES | activity change, negative = inhibition | Potency
Cc1cc(/C=C2/NC(=S)NC2=O)c(C)n1-c1cccnc1 | inactive: -27.9% | –
Fc1ccccc1-c1nc2ccccc2[nH]1 | – | inconclusive: 20.6 µM [inhibitor, single point]
C=C1CCC[C@]2(C)C[C@H]3OC(=O)C(CN4CCCCC4CO)[C@H]3CC12 (stereo partly specified) | – | active: 11.2 µM
N#Cc1ccc(OCC(=O)OCC(=O)NC2CC2)cc1 | inactive: 23.2% | –
CCC(=O)Nc1ccccc1C(=O)OCC(=O)c1ccc2ccccc2c1 | – | inconclusive: 29.1 µM [inhibitor, single point]
Cc1ccc(C2(C)NC(=O)N(CC(=O)NC(C)c3ccccc3)C2=O)cc1 (stereo unspecified) | – | inconclusive: 35.5 µM [inhibitor, single point]
CC(C)(O)c1cn(-c2nonc2N)nn1 | – | inconclusive: 35.5 µM [activator, single point]
CCCCn1c(O)c(N=Nc2ccccn2)c2ccccc21 | – | inconclusive: 5.01 µM [inhibitor, full curve]
COc1ccccc1N(C)S(=O)(=O)c1ccc(Cl)c(C(=O)NCc2ccco2)c1 | – | inconclusive: 20 µM [inhibitor, partial curve, poor fit]
CC(C)N(CCNS(=O)(=O)c1ccc(Cl)cc1)C(C)C | inactive: 1.63% | –
COc1ccc(C)cc1NC(=O)c1cccc(-c2ccc(OC(C)=O)cc2)c1 | – | inconclusive: 35.5 µM [inhibitor, single point]
COc1ccc(OCc2nc3c4c(ncn3n2)-c2ccccc2CC42CCCC2)cc1 | – | inconclusive: 2.51 µM [inhibitor, full curve, poor fit]
COC(=O)Cn1c(=O)c2c(nc(Br)n2Cc2ccccc2Cl)n(C)c1=O | inactive: 5.8% | –
COc1ccc(CN2C(=O)NC3(CCCC3)C2=O)cc1F | – | inconclusive: 1.26 µM [inhibitor, full curve, poor fit]
CC(C)NC(=O)c1cc2cc([N+](=O)[O-])ccc2s1 | – | inconclusive: 0.794 µM [inhibitor, full curve, poor fit]
Cc1ccc(Cn2nc(-c3ccccc3)nc2-c2ccccc2)cc1 | – | inconclusive: 6.31 µM [activator, single point]
C=CCNC(=O)/C(C#N)=C/c1c(N(Cc2ccccc2)Cc2ccccc2)nc2ccccn2c1=O | – | inconclusive: 35.5 µM [inhibitor, partial curve, poor fit]
CCOc1cc(N2CCOCC2)c(OCC)cc1NC(=O)COC(=O)CCOc1cc(C)ccc1C | inactive: -14.6% | –
O=C(COc1ccccc1)NCC1CCCO1 (stereo unspecified) | inactive: 7.17% | –
COc1cccc(C(=O)N2CCN(c3ccc(N4CCOCC4)nn3)CC2)c1 | – | inconclusive: 0.501 µM [inhibitor, full curve, poor fit]
COc1ccc(C(=O)NC(=S)Nc2ccccc2N2CCN(S(C)(=O)=O)CC2)cc1OC | – | inconclusive: 11.6 µM [inhibitor, partial curve]
CCCCn1nnc(NC(=O)COc2ccc(Cl)c(C)c2)n1 | – | inconclusive: 29.1 µM [activator, single point]
CCC(=O)NC(=S)Nc1cccc(NC(=O)c2ccco2)c1 | inactive: 2.58% [at 46.1 µM] | –
